# Assay results: paper PMC12040169 (PLOS Biology, 2025)
# Some of the results follow.
# Tested on: T1, CTL2-GFP (C. trachomatis L2/434/Bu, GFP-expressing)
# T1 construct: L2/434/Bu, GFP-expressing
# Design: species or system HeLa; Intracellular C. trachomatis growth in HeLa cells, bulk GFP fluorescence relative to DMSO
# Settings: bulk GFP, single well; 28.5 h, 10 µM; inhibitor
row,SMILES,% of control remaining
1,Cc1cccc(-c2csc3c(=O)[nH]c(N4CCC(C(=O)NCc5cccnc5)CC4)nc23)c1 [CBK215624],137.142%
2,COc1ccc2[nH]c3c(c2c1)CCNC31CCN(CC(=O)C(C)(C)C)CC1 [CBK039471],210.728%
3,CNCc1cn(C[C@H]2CC3CCN2C[C@@H]3C(=O)N2CCCC2)nn1 (stereo partly shown) [CBK289087],122.903%
4,CCn1cc(S(=O)(=O)N2CCC3(CC2)OCCO3)cn1 [CBK270321],83.3061%
5,COc1cc(NS(=O)(=O)c2ccc(NC(=O)c3cccnc3)cc2)ncn1 [CBK268156],70.5854%
6,CCC(=O)c1cccc2c1NC=C1C(=O)CC(C)(C)CC1=N2 [CBK265821],144.331%
7,CN1CCCN(c2cncc(-c3ccc(F)c(Cl)c3)n2)CC1 [CBK065297],154.358%
8,Cn1nccc1NS(=O)(=O)c1ccc(F)cc1 [CBK050484],86.2989%
9,CC(C)CNc1nccnc1-c1cccc(C=O)c1 [CBK088744],208.339%
10,CN1CCN(c2ccc(NC(=O)c3cccc(-c4cc5ccccc5oc4=O)c3)cc2Cl)CC1 [CBK269689],152.242%
11,CC1=C[C@@H](CNC(=O)c2ccccc2)[C@H](C(C)C)C[C@H]1CC(=O)O [CBK289213],142.344%
12,CC(=O)c1ccc2c3c(cccc13)CC(N(C)C)C2 (stereo not shown) [CBK005691S],139.674%
13,O=C(Nc1cccc(CCc2ccncc2)c1)C1CC(=O)N(Cc2ccncc2)C1 (stereo not shown) [CBK286287],127.438%
14,COc1ccc(-n2c(=O)[nH]cc(C(=O)N3CCc4ccccc43)c2=O)cc1OC [CBK287555],151.443%
15,CC1CCN(C(=O)CSc2ccc3nnc(-c4ccccc4)n3n2)CC1 [CBK287512],137.628%
16,O=C(CSCc1ccc(Cl)cc1Cl)Nc1ccc(O)cc1C(=O)O [CBK275322],136.783%
17,CC(C)C(=O)N1CC2(CCN(CC3COc4ccccc4O3)CC2)c2ccccc21 (stereo not shown) [CBK143946],101.455%
18,O=C1CNC(=S)N1c1cccc(C(F)(F)F)c1 [CBK288398],132.86%
19,COCCNC(=O)c1cc2n(n1)C(C(F)(F)F)CC(c1cccs1)N2 (stereo not shown) [CBK307614],86.6717%
20,CCN(CC)C(=O)c1ccc(N)cc1C [CBK022686C],141.19%
21,COc1ccccc1C1CCC(NCCCC(=O)c2ccc(F)cc2)CC1 (stereo not shown) [CBK015965C],168.98%
22,Cc1ccc(C(=O)NCc2ccc(-c3n[nH]cc3C(=O)N(C)c3ccccc3)cc2)cc1 [CBK285600],99.497%
23,Cc1cccc(N2C(=O)SC(N(CC(=O)O)c3cccc(C)c3)C2=O)c1 (stereo not shown) [CBK287095],106.114%
24,Cc1nn(C)cc1-c1cncn1CCN(C)C1CCCC1 [CBK281780],121.92%
25,CCn1nc2c(C)cc3ccc(OC)cc3n2c1=O [CBK283796],146.474%
26,Cc1ccc(-c2nc3ccccc3[nH]2)cc1 [CBK085933],93.1666%

# Two of the compounds above, with bars between the fields.
row | SMILES | % of control remaining
25 | CCn1nc2c(C)cc3ccc(OC)cc3n2c1=O [CBK283796] | 146.474%
26 | Cc1ccc(-c2nc3ccccc3[nH]2)cc1 [CBK085933] | 93.1666%

# The listing continues.

row,SMILES,% of control remaining
1,O=C(NCc1cccc2ccccc12)c1ccccc1-n1cccc1 [CBK149585],84.2412%
2,COc1ccc(CCc2nc(C)cc(CN(C)C)c2O)cc1OC [CBK278320C],112.274%
3,COc1cccc2c(C(C(=O)O)N3CCN(c4ccc(C(F)(F)F)cn4)CC3)c[nH]c12 (stereo not shown) [CBK286857],147.152%
4,CN(CCN1CCCCC1)C(=O)CCc1cn(C)c2ccccc12 [CBK281906],118.346%
5,O=C(C1CCCC1)N1CC(n2nc(-c3ccccc3)ccc2=O)C1 [CBK284617],155.399%
6,COCCNc1nc(-c2ccc([N+](=O)[O-])cc2)nc2ccccc12 [CBK264819],101.685%
7,O=C(COc1ccc(Br)cc1)Nc1ccc(Cl)c(-c2nc3ccccc3[nH]2)c1 [CBK263075],101.097%
8,Cc1ccc2[nH]c([C@H]3CCN(C(=O)NC(C)C)C3)nc2c1 [CBK289375],143.438%
9,CCc1nc2ccc(C(=O)Nc3ccc(Cl)c(Cl)c3)cn2c1N(CC)CCOC [CBK146042],146.887%
10,COc1cc(Nc2cncc(-c3cccnc3)n2)cc(OC)c1OC [CBK065201],279.38%
11,CN1CCN(C(=O)c2[nH]c3ccccc3c2NS(=O)(=O)/C=C/c2ccccc2)CC1 [CBK050047],74.0344%
12,c1ccc(-c2cc(CC3(NCc4c[nH]c5ccccc45)COC3)no2)nc1 [CBK289250],106.321%
13,CCOC(=O)N1CCN(C(=O)c2ccc(CS(=O)(=O)c3ccc(C)cc3)cc2)CC1 [CBK268659],138.636%
14,CCCC1=NNC(=O)/C1=C\c1cnc[nH]1 [CBK067767],97.5712%
15,CCC1CN(Cc2ccccc2)CCN1c1cncc(Cl)n1 (stereo not shown) [CBK003645],96.4434%
16,CS(=O)(=O)N1CCCc2cc(-c3csc(N)n3)ccc21 [CBK305859],114.502%
17,CC(C)C(=O)N1CCC(n2nc(C3CC3)ccc2=O)CC1 [CBK282351],100.246%
18,O=C(CSc1nccn1-c1ccccc1)Nc1ccc(F)cc1 [CBK287399],147.997%
19,O=C(CSc1nnc(-c2ccc(Cl)cc2Cl)o1)c1ccc2c(c1)OCCO2 [CBK268839],84.08%
20,O=S(=O)(Nc1cccnc1N1CCOCC1)c1cc(C(F)(F)F)cc(C(F)(F)F)c1 [CBK062306],109.958%
21,CCn1cc(C(=O)O)c(=O)c2cnc(N3CCN(C(=S)Nc4cc5oc6ccccc6c5cc4OC)CC3)nc21 [CBK267929],116.735%
22,COc1ccc(C=C2CCCC3C2=NN(C(=O)CCC(=O)O)C3c2ccc(OC)c(OC)c2)cc1OC (stereo not shown) [CBK296070],112.543%
23,O=c1cc(CN2CCc3ccccc3C2)[nH]c(=O)[nH]1 [CBK126401],116.61%
24,O=C(CSc1nnc(-c2ccc(Cl)cc2)n1-c1ccccc1)N/N=C/c1ccccn1 [CBK263001],117.532%
25,Cc1ccc(Cc2cnc(NC(=O)CN3CCCCC3)s2)cc1Cl [CBK307299],113.107%
26,O=c1[nH]c(=O)n([C@H]2C[C@@H](O)[C@@H](CO)O2)cc1O [CBK201317],102.818%

row,SMILES,% of control remaining
1,CC(CC(=O)O)CC(=O)NC1CCN(Cc2ccccc2)CC1 (stereo not shown) [CBK287042],117.428%
2,CC1CCN(Cc2ccc(-c3cn(CC(=O)NCc4ccc(Br)cc4)cn3)cc2)CC1 [CBK165969],125.991%
3,CCN1CCN(c2ccc(C(=O)OC)cc2NC(=O)c2ccc(C#N)cc2F)CC1 [CBK270171],114.693%
4,O=C(CCCN[C@H]1CC[C@](O)(c2ccc(F)cc2)CC1)c1ccc(F)cc1 [CBK023258C],121.149%
5,COc1ccc(-c2ccc(=O)n(CCN)n2)cc1 [CBK270130C],149.246%
6,O=C(O)C(c1c[nH]c2ccccc12)N1CCOCC1 (stereo not shown) [CBK286739],116.535%
7,CCc1nnc(NS(=O)(=O)c2c(C)nn(C)c2Cl)s1 [CBK062180],120.323%
8,N#C/C(=C\c1ccc(Oc2ccc(C(F)(F)F)cc2[N+](=O)[O-])cc1)c1nc2ccccc2[nH]1 [CBK263878],97.1243%
9,CN(C(=O)c1c[nH]nc1-c1ccc(CNC(=O)Cc2ccc(F)cc2)cc1)c1ccccc1 [CBK285599],125.079%
10,CCOc1cc(OCC)cc(C(=O)N2CCC3(CC2)CC(=O)c2cc(CC)ccc2O3)c1 [CBK168009],127.062%
11,C=CCOc1nc2c(=O)[nH]c(/N=C/N(C)C)nc2n1C1CC(O)C(CO)O1 (stereo not shown) [CBK201299],137.027%
12,O=C(CSc1nnc2ccc3ccccc3n12)Nc1nsc(-c2ccc(Cl)cc2)n1 [CBK266460],132.034%
13,Cc1cc(C)nc(N2CCC(CC(=O)NCC(C)N3CCCCCC3)CC2)n1 (stereo not shown) [CBK286029],117.86%
14,CC(=O)NC1(CC(=O)N2CC[C@H]3NC(=O)COc4ccccc4C/C=C/C[C@H]3C2)CCCCC1 [CBK292117],117.096%
15,Oc1cccc(-c2cncc(NCCCN3CCOCC3)n2)c1 [CBK037858],132.049%
16,COc1ccc(-c2n[nH]c(=S)n2CC(=O)Nc2ccc(NC(=O)CC(C)C)cc2)cc1 [CBK295342],124.51%
17,COc1cc(C=Cc2nc3cc(Cl)ccc3s2)ccc1OCC(=O)O [CBK297886],153.986%
18,Cc1ccccc1CCNC(=O)CCc1c(C)nc2nc(N)nn2c1C [CBK304994],122.187%
19,c1ccc2c(c1)n(CCN1CCOCC1)c1nc(C34CC5CC(CC(C5)C3)C4)cn21 [CBK278154C],124.63%
20,Cc1ccn(-c2ccc(N3CCC(OC4CCCC4)CC3)nn2)n1 [CBK306301],133.274%
21,O=c1c(N2CCC(Sc3ccccc3)CC2)nccn1Cc1ccc([N+](=O)[O-])cc1 [CBK153654],79.2678%
22,O=C(c1ccc(Cl)cc1)c1ccc(OCC(=O)N2CCN(C(=O)c3ccco3)CC2)cc1 [CBK295658],95.904%
23,CCN(Cc1ccccc1)Cc1c(O)ccc2c(=O)c(-c3ccccc3OC)c(C(F)(F)F)oc12 [CBK265839],118.83%
24,Cc1ccccc1C(=O)NCC(=O)NCc1csc(-c2ccccc2)n1 [CBK092334],120.417%

# An excerpt of these results, with tabs.
row	SMILES	% of control remaining
9	CN(C(=O)c1c[nH]nc1-c1ccc(CNC(=O)Cc2ccc(F)cc2)cc1)c1ccccc1 [CBK285599]	125.079%
13	Cc1cc(C)nc(N2CCC(CC(=O)NCC(C)N3CCCCCC3)CC2)n1 (stereo not shown) [CBK286029]	117.86%
18	Cc1ccccc1CCNC(=O)CCc1c(C)nc2nc(N)nn2c1C [CBK304994]	122.187%
